# Results reported in PubChem BioAssay AID493014 (National Center for Advancing Translational Sciences (NCATS), 2011).
# Some of the results follow. Further columns of the screen follow, without active or inactive calls. Most of these compounds were active or inconclusive in the main read-out, so they are no random draw. The note in brackets gives the kind of curve behind each potency; many fits are weak.
# Assay: qHTS Assay to Find Inhibitors of Chronic Active B-Cell Receptor Signaling
# Settings: ABC-DLBCL IkBa-CBG/CBR reporter, luminescence ratio (green luciferase fused to IkBa over red control in TMD8 lymphoma cells), 4 h
# In short: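 Cell line TMD8 (human ABC DLBCL), stably expressing tet-inducible CBG68-IkBa fusion and CBR; IMDM/0.5% FBS; cpd up to 46 uM; dox induction, 4 h, 37C/5% CO2; dual luminescence; green/red ratio; MG132 control.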
# [1] = measured here: CBR red luminescence, cell number
# [2] = measured here: IkBa-CBG green luminescence
Compound,AC50 [1],AC50 [2]
O=C(Nc1nccs1)c1ccc(-c2ccc([N+](=O)[O-])cc2)o1,"8.91 µM [falling, partial curve, poor fit]",–
CN[C@H]1CCc2cc(OC)c(OC)c(OC)c2-c2ccc(N(C)CC(OC)OC)c(=O)cc21,"28.2 µM [rising, single point]","17.8 µM [falling, partial curve]"
CC1CC(C)CN(CCCNC(=O)c2ccc3c(c2)ncn3C2CCCC2)C1 (stereo unspecified),"12.6 µM [rising, partial curve, poor fit]",–
O=C(Nc1nc(-c2cc(F)ccc2F)cs1)c1cccc(N2C(=O)CCC2=O)c1,"18.4 µM [falling, partial curve, poor fit]",–
COc1ccc(/C=N\NC(=O)c2ccccc2Br)cc1COc1c(F)c(F)cc(F)c1F,"17.8 µM [falling, single point]",–
Cc1cc(N/N=C/c2c(O)ccc3ccccc23)nc(-c2ccccc2O)n1,"0.651 µM [falling, partial curve, poor fit]",–
Cc1cc(NC(=O)Nc2ccccc2F)ccc1Br,"15.8 µM [falling, partial curve, poor fit]",–
O=C(N/N=C/c1cccc(NC(=O)c2ccc(Cl)cc2)c1)c1ccc(O)cc1,"3.16 µM [falling, partial curve, poor fit]",–
COc1ccc(-c2nc3cc(C)ccn3c2NCc2ccc3c(c2)OCO3)cc1,"0.1 µM [rising, full curve, poor fit]",–
Nc1nc(N)nc(-c2cc(O)ccc2O)n1,"8.2 µM [falling, partial curve, poor fit]","5.8 µM [rising, partial curve, poor fit]"
COc1ccccc1N1CCN(C(=O)CN2C(=O)c3ccccc3S2(=O)=O)CC1,"15.8 µM [rising, partial curve]",–
COc1cc(C(=O)Nc2ccccc2N2CCOCC2)ccc1OCC(=O)N1CCOCC1,"0.461 µM [rising, full curve, poor fit]",–
O=C(CSCc1ccccc1)NNC(=S)Nc1cccc(Cl)c1Cl,"16.4 µM [falling, single point]",–
COc1ccc(NC(=O)C23CCC(C)(C(=O)C2)C3(C)C)cc1 (stereo unspecified),"6.51 µM [rising, single point]",–
COc1ccc(CNCCSc2nnnn2C)cc1OC,"29.1 µM [rising, single point]",–
Cc1ccnc2c(N3C(=O)C4C5c6ccccc6C(c6ccccc65)C4C3=O)cccc12 (stereo unspecified),"22.4 µM [falling, single point]",–
Cc1c(C(=O)OCCN2CCCCC2)oc2ccccc12,"7.94 µM [rising, partial curve]",–
CC(C)C(=O)NC(c1ccc([N+](=O)[O-])cc1)c1c(O)ccc2ccccc12 (stereo unspecified),"12.6 µM [falling, partial curve]",–
Cc1cccc(N)c1SC1CCCCC1O (stereo unspecified),"14.6 µM [rising, partial curve, poor fit]",–
NC(N)=NN=C1c2ccccc2-c2ccccc21,"3.98 µM [falling, full curve, poor fit]",–
COc1ccccc1NC(=O)C(C)OC(=O)/C=C/c1ccc2ccccc2n1 (stereo unspecified),"23.1 µM [falling, partial curve, poor fit]",–
O=c1nccc(N/N=C/c2ccccc2O)[nH]1,"14.1 µM [falling, single point]",–

Compound,AC50 [1],AC50 [2]
CC(C)(C)n1nc2c(c1NC(=O)COc1ccc3ccccc3c1)CS(=O)C2 (stereo unspecified),"6.51 µM [falling, single point]",–
COc1ccccc1N1CCN(C(=O)c2ccc3[nH]c4c(c3c2)CCCC4)CC1,"8.2 µM [falling, partial curve]",–
O=C(NCc1ccccc1)c1cc(-c2cccs2)on1,"7.94 µM [falling, partial curve]",–
COc1ccccc1Nc1cc(C(=O)NCCCN2CCOCC2)c2ccccc2n1,"35.5 µM [falling, single point]",–
O=C(C1CC1)N1N=C(c2ccc(F)cc2)CC1(O)C(F)(F)F (stereo unspecified),"35.5 µM [rising, single point]",–
CCN(CCn1cccn1)C(=O)CC1C(=O)NCCN1Cc1ccc(OC)c(OC)c1 (stereo unspecified),"14.1 µM [rising, single point]",–
CN(c1ccccc1)S(=O)(=O)c1cc(C(=O)Nc2nc3ccccc3[nH]2)ccc1Cl,"20.6 µM [falling, single point]",–
CC1=N/C(=C\c2ccc([N+](=O)[O-])cc2)C(=O)N1c1ccc(Cl)cc1,"2.24 µM [falling, partial curve, poor fit]",–
CCCC(=O)Nc1ccc(-c2nc3ncccc3o2)cc1,"15.8 µM [rising, partial curve, poor fit]",–
O=C(/C=C\c1ccc2c(c1)OCO2)CC1(O)C(=O)Nc2ccccc21 (stereo unspecified),"35.5 µM [falling, single point]",–
O=C(CSc1nnnn1-c1ccccc1)Nc1ncc2c(n1)CC(c1ccccc1)CC2=O (stereo unspecified),"4.11 µM [rising, single point]",–
CCc1ccc(C(=O)c2cn(CC(=O)Nc3cccc(OC)c3)c3ccc(OC)cc3c2=O)cc1,"20.6 µM [falling, single point]",–
CCOC(=O)c1cnn2c(C)cc(-c3ccc(F)cc3)nc12,"1.41 µM [rising, partial curve, poor fit]",–
COc1ccccc1N1CCN(c2ncnc3c2cnn3-c2cc(Cl)ccc2C)CC1,"5.62 µM [falling, partial curve, poor fit]",–
COc1ccc(OCC(=O)NCc2ccc3c(c2)CCN3C(=O)c2ccccc2)cc1,"11.2 µM [rising, partial curve]",–
O=C(CCCNS(=O)(=O)c1ccccc1)NCc1ccco1,"4.61 µM [falling, partial curve, poor fit]",–
O=S(=O)(c1ccc(Br)s1)N1CCCCC1,"6.51 µM [rising, single point]",–
CCOC(=O)c1c(COc2ccccc2)oc2ccc(O)cc12,"7.94 µM [rising, partial curve, poor fit]",–
CN(C)CCCN(C(=O)COc1ccccc1)c1nc2ccc(Cl)cc2s1,"12.6 µM [falling, single point]",–
CN(CC(=O)Nc1ccc(Br)cc1)Cc1ccccc1,"3.16 µM [rising, partial curve, poor fit]",–
c1ccc(-c2ccc(-c3nc(-c4ccncc4)no3)cc2)cc1,"0.562 µM [rising, full curve, poor fit]",–
COC(=O)c1ccc(CSc2nncn2C)cc1,"35.5 µM [falling, single point]",–

Compound,AC50 [1],AC50 [2]
Cc1ccc(C)c(OCC(=O)Nc2cccc(S(=O)(=O)NC3=NCCCCC3)c2)c1,"10 µM [falling, partial curve, poor fit]",–
Cc1ccc(C(=O)NC(C#N)=C(Cl)Cl)cc1,"2.82 µM [falling, full curve]",–
Cc1nc2cc(-c3ccc(Cl)cc3)nn2c(C)c1CCC(=O)NC(C)c1ccc2c(c1)OCCO2 (stereo unspecified),"0.184 µM [falling, full curve]",–
O=C(c1cc2c(ccc3ccccc32)o1)N1CCCCC1,"11.2 µM [falling, single point]",–
Cn1cccc1/C=N/NC(=O)c1ccccn1,"20 µM [falling, single point]",–
Cc1nn(C)c(C)c1NC(=O)CSc1nc(-c2ccccc2Cl)nc2c1cnn2-c1ccccc1,"18.4 µM [falling, single point]",–
O=C(/C=C/c1ccccc1)N1CCC(c2ccccc2)C1 (stereo unspecified),"5.17 µM [falling, partial curve]",–
Cc1ccc(NC(=O)CSc2nnnn2-c2ccc3c(c2)OCO3)cc1C,"3.26 µM [rising, single point]",–
COc1ccc(/C=C2\Sc3ccc(C(=O)NCc4cccnc4)cc3N(C)C2=O)cc1OC,"35.5 µM [falling, partial curve, poor fit]",–
N#Cc1ccc(/C=N/N=C(N)N)cc1,"0.164 µM [falling, full curve, poor fit]",–
COc1ccc(S(=O)(=O)N2CCCCCC2)cc1C(=O)N(C)CC(=O)Nc1ccc(F)cc1,"0.0366 µM [rising, full curve, poor fit]",–
CCOC(=O)Cc1csc(NC(=O)c2cccc(OC)c2)n1,"2.91 µM [falling, partial curve]",–
CSc1ccccc1OCc1cc(C(=O)NCc2ccc(C)s2)no1,"17.8 µM [falling, single point]",–
N#Cc1c(/N=C/c2ccc(Br)s2)sc2c1CCC2,"25.9 µM [rising, partial curve, poor fit]",–
Cc1ccc(CNC(=O)CC2(CC3=NS(=O)(=O)c4ccccc4N3)CCCC2)cc1,"1.78 µM [falling, full curve, poor fit]",–
COc1ccccc1C/C(N)=N/OC(=O)c1cccc([N+](=O)[O-])c1,"10.3 µM [rising, partial curve, poor fit]",–
CCc1noc(C)c1C(=O)Nc1nc(-c2cc(OC)ccc2OC)cs1,"0.58 µM [rising, full curve, poor fit]",–
Cc1cccc(NC(=S)NC(=O)CC2CC(C)(C)OC2=O)c1 (stereo unspecified),"11.2 µM [falling, single point]",–
O=C(CCNC(=O)c1ccccc1Cl)Nc1nc2ccc(F)cc2s1,"18.4 µM [falling, single point]",–
S=c1[nH]nc(C2CCCCC2)n1/N=C/c1ccccc1Cl,"25.1 µM [rising, single point]",–

# Pulled one by one from the entries so far (2):
Compound,AC50 [1],AC50 [2]
N#Cc1ccc(/C=N/N=C(N)N)cc1,"0.164 µM [falling, full curve, poor fit]",–
N#Cc1c(/N=C/c2ccc(Br)s2)sc2c1CCC2,"25.9 µM [rising, partial curve, poor fit]",–
